Measurements as given in article PMC7550686.
Results are given in words; binding and its absence hold for the method and conditions named. For some assays here: Binding seen in cells or lysates may run through a third protein. Some entries that bind do so weakly or less than the wild type. Where a sequence is shown, tags or fusion partners need not be part of it.

B1: SnRK1α1 fused to the B42 activation domain (enzyme, UniProt Q38997 1-512)
chain: MDGSGTGSRSGVESILPNYKLGRTLGIGSFGRVKIAEHALTGHKVAIKILNRRKIKNMEMEEKVRREIKILRLFMHPHIIRLYEVIETPTDIYLVMEYVNSGELFDYIVEKGRLQEDEARNFFQQIISGVEYCHRNMVVHRDLKPENLLLDSKCNVKIADFGLSNIMRDGHFLKTSCGSPNYAAPEVISGKLYAGPEVDVWSCGVILYALLCGTLPFDDENIPNLFKKIKGGIYTLPSHLSPGARDLIPRMLVVDPMKRVTIPEIRQHPWFQAHLPRYLAVPPPDTVQQAKKIDEEILQEVINMGFDRNHLIESLRNRTQNDGTVTYYLILDNRFRASSGYLGAEFQETMEGTPRMHPAESVASPVSHRLPGLMEYQGVGLRSQYPVERKWALGLQSRAHPREIMTEVLKALQDLNVCWKKIGHYNMKCRWVPNSSADGMLSNSMHDNNYFGDESSIIENEAAVKSPNVVKFEIQLYKTRDDKYLLDLQRVQGPQFLFLDLCAAFLAQLRVL
B2: SnRK1α1 fused to half-YFP (YFP^N-myc-SnRK1α1 or YFP^C fusion) (enzyme, UniProt Q38997 1-512)
chain: B1 chain

Tests used:
[1] = molecular target: T1, AFP2 (ABI Five Binding Protein2) fused to the LexA DNA binding domain (Arabidopsis thaliana) (UniProt Q9LMX5); test: two-hybrid; AFP2 and truncations as LexA DBD baits, SnRK1α1 as B42 AD prey; mated yeast scored on LacZ (X-gal) and LEU (leu-) reporters in parallel, 4 days
T1 sequence: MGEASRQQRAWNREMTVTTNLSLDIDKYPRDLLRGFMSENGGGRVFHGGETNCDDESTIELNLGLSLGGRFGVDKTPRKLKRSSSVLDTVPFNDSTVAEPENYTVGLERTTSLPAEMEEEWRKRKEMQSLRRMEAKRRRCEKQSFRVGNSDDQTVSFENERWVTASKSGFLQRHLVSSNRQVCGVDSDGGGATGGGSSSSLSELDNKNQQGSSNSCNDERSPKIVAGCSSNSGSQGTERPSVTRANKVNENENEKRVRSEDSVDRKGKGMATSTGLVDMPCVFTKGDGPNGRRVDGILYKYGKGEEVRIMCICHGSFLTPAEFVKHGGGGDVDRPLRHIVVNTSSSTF

[2] = molecular target: T2, full-length AFP2 fused to half-YFP (YFP^C-HA-AFP2 or YFP^N fusion) (Arabidopsis thaliana) (UniProt Q9LMX5); test: split reporter; BiFC with half-YFP (YFP^N/YFP^C) fusions transiently co-expressed in N. benthamiana leaf epidermal cells, confocal microscopy 72 h after infiltration
T2 sequence: T1 sequence

Binder | binding [1] | binding [2]
B1 | binds | 
B2 |  | binds
